Measured values published in publication PMC5452035, “Structural insight into recognition of phosphorylated threonine‐4 of RNA polymerase II C‐terminal domain by Rtt103p” (EMBO Reports, 2017).

Assay: Cis-trans population estimation of the Ser-Pro peptide bond by [13C,1H]-HSQC
Format: physicochemical
Details: free peptide, 1 mM, 35 mM KH2PO4, 100 mM KCl pH 6.8, 90% H2O/10% D2O, 20°C, ratio of peak volumes

## PS Y(pS)^13CP(pT)SPSYS [PS Y(pS)^13CP(pT)SPS YS, pSer2pThr4 CTD peptide with 13C‐labelled P3b]
  population of the cis conformer of the S2b–P3b prolyl‐peptidyl bond: 7.8%

## PSYS^13CP(pT)SPSYS [PS YS^13CP(pT)SPS YS, pThr4 CTD peptide with 13C‐labelled P3b]
  population of the cis conformer of the S2b–P3b prolyl‐peptidyl bond: 6.6%
